From patent US20260226108A1, “FUSION POLYPEPTIDE AJ007 AND USE THEREOF” (NANJING ANJI BIOTECHNOLOGY CO, LTD., priority 2023, published 2026)
At least one peptide structure holds a part that was inferred or is arguable (an end, a ring closure or a residue). Residues, ends and D or L forms follow the SMILES beside them.

Tested on: laser-induced CNV (wAMD mouse model)
Experiment: Laser-induced CNV efficacy at equimolar concentration in wAMD mouse model: FFA and FITC-dextran flat-mount staining (Example 6)
Type: in vivo, C57BL/6J mice
Details: equimolar (HM-1 8.76 mg/mL, AJ007 20 mg/mL)

C[C@H](NC(=O)CNC(=O)[C@H](CCCNC(=N)N)NC(=O)[C@H](CCCNC(=N)N)NC(=O)[C@H](CCCNC(=N)N)NC(=O)[C@H](CCCNC(=N)N)NC(=O)[C@H](CCC(N)=O)NC(=O)[C@H](CCCNC(=N)N)NC(=O)[C@H](CCCNC(=N)N)NC(=O)[C@H](CCCCN)NC(=O)[C@H](CCCCN)NC(=O)[C@H](CCCNC(=N)N)NC(=O)CNC(=O)[C@@H](N)Cc1ccc(O)cc1)C(=O)N[C@@H](CC(=O)O)C(=O)N[C@@H](CCCNC(=N)N)C(=O)N[C@@H](C)C(=O)NCC(=O)NCC(=O)NCC(=O)NCC(=O)N[C@@H](CCCNC(=N)N)C(=O)NCC(=O)N[C@@H](CC(=O)O)C(=O)O [AJ007] (H-YGRKKRRQRRRRGADRAGGGGRGD-OH; N-terminus and C-terminus assumed)
CNV area (FITC-dextran flat-mount staining) (eye dropping 5 times a day for 7 days, day 7): cannot reduce the laser-induced CNV area
CNV leakage (FFA examination) (eye dropping 5 times a day, FFA on day 3): cannot significantly improve laser-induced CNV leakage
